This is an account of results in the supplement of paper PMC4749390.

Structures are written as SMILES. Where a name gives a salt, the structure may show the parent alone. Some of the results follow. This data set is noisy: repeats of one test often differ as much as different tests do.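 Wild-type human LRH-1, a heavily sumoylated nuclear receptor, is tetracycline-inducible in stable JEG3 cells. RT-qPCR measured SUMO-sensitive APOC3 and MUC1 transcripts, which rise with SUMO-less LRH-1 or UBC9 knockdown, versus TBP and DMSO controls. Robust Z-scores beyond ±2 flagged primary hits, followed by toxicity and TBP filtering.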

The test system of this test is JEG3 expressing hLRH-1. Briefly: MUC1 transcript change (ddCt vs TBP and DMSO), Z-score over library; higher = higher MUC1 expression. As to conditions: 10 µM; time (hr): 24.
For `COc1ccccc1O` [guaiacol], the “MUC1 transcript change (Z-score)” value is -0.199.
Under `CN1CCc2cccc3c2C1Cc1ccc(O)c(O)c1-3` (centres undefined) [apomorphine hydrochloride] stands 0.763; under `Oc1ncc(F)c(O)n1` [fluorouracil], 0.528; under `CC(=O)CC(c1ccccc1)c1c(O)oc2ccccc2c1=O` (centres undefined) [warfarin], 0.686.
In the case of `CC(C)COC(=O)c1ccc(N)cc1` [isobutamben] it was -0.973.
With `C[C@@H]1CC2C3CCC4=CC(=O)C=C[C@]4(C)[C@@]3(F)[C@@H](O)C[C@]2(C)[C@H]1C(=O)CO` (some centres undefined) [desoxymetasone], the “MUC1 transcript change (Z-score)” value was -0.2.
Under `Cc1cc(/C=C/c2ccc3cc(N(C)C)ccc3[n+]2C)c(C)n1-c1ccccc1` [pyrvinium pamoate] stands -6.6; under `CC(=O)O[C@H]1C(=O)[C@@]2(C)C([C@H](OC(=O)c3ccccc3)[C@]3(O)C[C@H](OC(=O)[C@H](O)[C@@H](NC(=O)c4ccccc4)c4ccccc4)C(C)=C1C3(C)C)[C@]1(OC(C)=O)CO[C@@H]1C[C@@H]2O` (some centres undefined) [Taxol], -0.263.
In the case of `C=CCSCC1Nc2cc(Cl)c(S(N)(=O)=O)cc2S(=O)(=O)N1` (centres undefined) [althiazide] it was 1.7.
Under `CC(C)(C(=O)O)c1ccc(C(O)CCCN2CCC(C(O)(c3ccccc3)c3ccccc3)CC2)cc1` (centres undefined) [fexofenadine hydrochloride] stands -0.115.
In the case of `C/C=C(/C(=C/C)c1ccc(O)cc1)c1ccc(O)cc1` [dienestrol], the “MUC1 transcript change (Z-score)” value was -0.152.
In the case of `CC(=O)Nc1ccc(O)cc1` [acetaminophen] it was -0.44.
In the case of `O=C(Nc1ccccc1)OCC(CN1CCCCC1)OC(=O)Nc1ccccc1` (centres undefined) [diperodon hydrochloride], the “MUC1 transcript change (Z-score)” value was 0.305.
Under `NCCCC(N)C(=O)O` (centres undefined) [ornithine aketoglutarate] stands 0.466; under `CC(=O)Oc1ccccc1C(=O)Nc1ncc([N+](=O)[O-])s1` [nitazoxanide], 1.23.
Turning to `CO/N=C(\C(=O)N[C@@H]1C(=O)N2C(C(=O)O)=C(C[N+]3(C)CCCC3)CS[C@H]12)c1csc(N)n1` [cefepime hydrochloride], the “MUC1 transcript change (Z-score)” value amounted to 0.443.
Consider `CC1(C)C(C(=O)O)N2C(=O)C[C@H]2S1(=O)=O` (some centres undefined) [sulbactam], for which the “MUC1 transcript change (Z-score)” value is -3.35.
For the compound `COc1cc2c(cc1OC)C(=O)C(CC1CCN(Cc3ccccc3)CC1)C2` (centres undefined) [donepizil hydrochloride], the “MUC1 transcript change (Z-score)” value turned out to be 1.36.
For `CC(=O)N[C@@H](Cc1ccccc1)C(=O)O` [afalanine], the “MUC1 transcript change (Z-score)” value is -0.228.
Regarding `O=C1[O][Bi]([OH])[O]c2ccccc21` [bismuth subsalicylate], the “MUC1 transcript change (Z-score)” value amounted to 1.26.
In the case of `Cc1cc2c(cc1S(N)(=O)=O)S(=O)(=O)CCC2` [meticrane] it was -0.104; in that of `c1ccc([C@H]2CN3CCSC3=N2)cc1` [levamisole hydrochloride], 0.755.
In the case of `CCCCC(=O)O[C@]1(C(=O)CO)CC[C@H]2[C@@H]3CCC4=CC(=O)CC[C@]4(C)[C@H]3[C@@H](O)C[C@@]21C` [hydrocortisone valerate], the “MUC1 transcript change (Z-score)” value is -1.34.
In the case of `Cc1noc(NS(=O)(=O)c2ccc(N)cc2)c1C` [sulfisoxazole], the “MUC1 transcript change (Z-score)” value was -0.234.
Under `O=C(Nc1ccccc1)c1ccccc1O` [salicylanilide] stands 0.41; under `COc1cc2nc(N(C)CCCNC(=O)C3CCCO3)nc(N)c2cc1OC` (centres undefined) [alfuzosin hydrochloride], 0.263.
In the case of `CN1CCN2c3ccccc3Cc3ccccc3C2C1` (centres undefined) [Mianserin hydrochloride], the “MUC1 transcript change (Z-score)” value is 0.549.
In the case of `CN1CC(=O)N=C1N` [creatinine] it was 0.935.
As to `CCC(C)C1NC(=O)C(CCN)NC(=O)C(NC(=O)C(CCN)NC(=O)C(NC(=O)C(CCN)NC(=O)CCCCC(C)C)C(C)O)CCNC(=O)C(C(C)O)NC(=O)C(CCN)NC(=O)C(CCN)NC(=O)C(C(C)CC)NC1=O` (centres undefined) [colistin sulfate], the “MUC1 transcript change (Z-score)” value was 0.327.
Under `OC[C@H]1O[C@@H](O[C@@H]2[C@@H](CO)OC(O)(CO)[C@H]2O)[C@H](O)[C@@H](O)[C@H]1O` (mixture of isomers) [lactulose] stands -0.202; under `Cc1scc2c1N(C(=O)CN1CCN(C)CC1)c1ccccc1NC2=O` [Telenzepine dihydrochloride], 1.07.
Under `CN(C)CCC(c1ccc(Br)cc1)c1ccccn1` (centres undefined) [brompheniramine maleate] stands -0.504; under `Cc1ccc2c(Cl)cc(Cl)c(O)c2n1` [chlorquinaldol], -0.175; under `N=C(N)N/N=C/c1c(Cl)cccc1Cl` [guanabenz acetate], -0.226.
With `NC(Cc1ccc(O)cc1)C(=O)O` (centres undefined) [tyrosine], the “MUC1 transcript change (Z-score)” value is 0.329.
Under `COC(=O)N/N=C/c1c[n+]([O-])c2ccccc2[n+]1[O-]` [carbadox] stands 0.733.
As for `O=C(O)c1ccccc1OP(=O)(O)O` [fosfosal], the “MUC1 transcript change (Z-score)” value came out at 0.12.
In the case of `CN(C)CCOC(=O)COc1ccc(Cl)cc1` [meclofenoxate hydrochloride] it was 0.0743; in that of `CC(N)C12CC3CC(CC(C3)C1)C2` (centres undefined) [rimantadine hydrochloride], -0.833; in that of `COC(=O)C(N)CS` (centres undefined) [mecysteine hydrochloride], 0.479.
In the case of `O=C1c2ccccc2C(=O)C1c1ccccc1` [phenindione] it was 0.539; in that of `O=C(O)c1cc(-c2ccccc2)nc2ccccc12` [cinchophen], 0.603.
In the case of `COc1ccc2cc1Oc1ccc(cc1)C[C@H]1c3c(cc4c(c3Oc3cc5c(cc3OC)CCN(C)[C@@H]5C2)OCO4)CCN1C` [cepharanthine] it was 0.505; in that of `CC(=O)N(O)CCCCCNC(=O)CCC(=O)N(O)CCCCCNC(=O)CCC(=O)N(O)CCCCCN` [deferoxamine mesylate], 2.81; in that of `Cc1cc(-c2ccc(N=Nc3ccc4c(S(=O)(=O)O)cc(S(=O)(=O)O)c(N)c4c3O)c(C)c2)ccc1N=Nc1ccc2c(S(=O)(=O)O)cc(S(=O)(=O)O)c(N)c2c1O` [evans blue], 0.752.
As for `O=C1CC2(CCCC2)CC(=O)N1CCCCN1CCN(c2ncccn2)CC1` [Buspirone hydrochloride], the “MUC1 transcript change (Z-score)” value is 1.01.
Regarding `CN1CCC(=C2c3ccccc3Sc3ccccc32)CC1` [pimethixene maleate], the “MUC1 transcript change (Z-score)” value was -0.649.
In the case of `O=C(CCCN1CCN(c2ccccn2)CC1)c1ccc(F)cc1` [azaperone] it was 0.981; in that of `CCC(Cc1c(I)cc(I)c(N)c1I)C(=O)O` (centres undefined) [iopanic acid], 0.105.
In the case of `CCC(NC(C)C)C(O)c1ccc(O)c(O)c1` (centres undefined) [isoetharine mesylate] it was -0.305.
Regarding `CC(=O)Nc1ccc(OC(C)=O)cc1` [diacetamate], the “MUC1 transcript change (Z-score)” value worked out at 0.476.
In the case of `C[C@]12CC[C@@H]3c4ccc(O)cc4CC[C@H]3[C@@H]1CC[C@@H]2OC(=O)CCC1CCCC1` [estradiol cypionate] it was 0.853.
Take `CN(C)CCOC(c1ccc(Cl)cc1)c1ccccn1` (centres undefined) [carbinoxamine maleate]: the “MUC1 transcript change (Z-score)” value stood at 0.429.
As to `CC(C)[C@H](N)C(=O)OCC(CO)OCn1cnc2c(O)nc(N)nc21` (some centres undefined) [valganciclovir hydrochloride], the “MUC1 transcript change (Z-score)” value is 0.28.
In the case of `NCc1ccc(S(N)(=O)=O)cc1` [mafenide hydrochloride] it was -0.893.
Under `CCOC(=O)C(C)(C)Oc1ccc(Cl)cc1` [Clofibrate] stands 0.431.
As for `CCN(CC)C(=O)/C(C#N)=C/c1cc(O)c(O)c([N+](=O)[O-])c1` [entacapone], the “MUC1 transcript change (Z-score)” value was 0.621.
In the case of `Cn1c([N+](=O)[O-])cc[n+]1C` [dimetridazole] it was 0.484; in that of `O=C1OC(CN2CCOCC2)CN1/N=C/c1ccc([N+](=O)[O-])o1` (centres undefined) [furaltadone], 0.897.
Take `CCCCOCCOCCOCc1cc2c(cc1CCC)OCO2` [piperonyl butoxide]: the “MUC1 transcript change (Z-score)” value worked out at 0.209.
Under `CCCCCCCCCCCCCCCC(=O)NCCO` [palmidrol] stands 1.15.
Under `C=CC1=C(C(=O)O)N2C(=O)[C@@H](NC(=O)/C(=N\O)c3csc(N)n3)[C@H]2SC1` [cefdinir] stands -0.667; under `CCCCC1C(=O)N(c2ccccc2)N(c2ccc(O)cc2)C1=O` (centres undefined) [oxyphenbutazone], -1.46.
In the case of `NC12CC3CC(CC(C3)C1)C2` [Amantadine hydrochloride], the “MUC1 transcript change (Z-score)” value stood at 1.47.
In the case of `CO[C@H]1O[C@@H]2O[C@@]3(C)CC[C@H]4[C@H](C)CC[C@@H]([C@H]1C)[C@@]24OO3` [artemether] it was -0.123; in that of `C[C@@H](c1ncncc1F)[C@](O)(Cn1cncn1)c1ccc(F)cc1F` [voriconazole], 0.139.
Take `O=C(C1CCCCC1)N1CC(=O)N2CCc3ccccc3C2C1` (centres undefined) [praziquantel]: the “MUC1 transcript change (Z-score)” value is 0.442.
With `C[C@H](CCC(=O)O)[C@H]1CCC2C3C(=O)CC4CC(=O)CC[C@]4(C)C3CC(=O)[C@@]21C` (some centres undefined) [sodium dehydrocholate], the “MUC1 transcript change (Z-score)” value was 0.505.
Turning to `CC1CC(OC(=O)c2ccccc2O)CC(C)(C)C1` (centres undefined) [homosalate], the “MUC1 transcript change (Z-score)” value was 0.695.
For `CCC1(c2ccccc2)C(=O)NCNC1=O` [Primidone], the “MUC1 transcript change (Z-score)” value amounted to 0.651.
Turning to `CC(=O)NO` [acetohydroxamic acid], the “MUC1 transcript change (Z-score)” value amounted to 0.778.
Turning to `O=C(O)c1cc(-c2ccc(F)cc2F)ccc1O` [diflunisal], the “MUC1 transcript change (Z-score)” value was -0.163.
In the case of `CC(C)(Oc1ccc(Cl)cc1)C(=O)O` [clofibric acid] it was 0.273; in that of `Cn1cnc([N+](=O)[O-])c1Sc1[nH]cnc2ncnc1-2` [Azathioprine], 0.735.
In the case of `CC(C)(S)[C@@H](N)C(=O)O` [penicillamine] it was 0.321; in that of `CC(=O)CC(c1ccc([N+](=O)[O-])cc1)c1c(O)oc2ccccc2c1=O` (centres undefined) [acenocoumarol], 1.95; in that of `CCCCCCCCCCC[C@@H](C[C@@H]1OC(=O)[C@H]1CCCCCC)OC(=O)[C@H](CC(C)C)NC=O` [orlistat], 0.283.
Under `CC[C@H]1OC(=O)[C@H](C)[C@@H](O[C@H]2C[C@@](C)(OC)[C@@H](O)[C@H](C)O2)[C@H](C)[C@@H](O[C@@H]2O[C@H](C)C[C@H](N(C)C)[C@H]2O)[C@](C)(O)C[C@@H](C)[C@@H]2N[C@@H](COCCOC)O[C@H]([C@H]2C)[C@]1(C)O` [dirithromycin] stands -0.475; under `O=C1CN2Cc3c(ccc(Cl)c3Cl)N=C2N1` [anagrelide hydrochloride], -0.606.
